Among the data in paper PMC9853200 are binding values, retold here.

Results are given in words; binding and its absence hold for the method and conditions named. Binding seen in cells or lysates may run through a third protein. Tags and fused reporters may be left off the sequences shown.

In the assay the target is duck TRIM29 with N-terminal HA tag (duTRIM29-HA), full length (duck). As to the kind of experiment: co-IP; HEK293T cells cotransfected, 24 h; NP-40 lysis buffer with 1% PMSF; lysate incubated with anti-HA agarose beads 4-6 h at 4°C; immunoblot. On the technique in general: Immunoblotting shows a protein as a band on a membrane.

B1: full-length duck RIG-I with C-terminal MYC tag (duRIG-I-MYC) (protein, UniProt D3TI84 1-933)
chain: MTADEKRSLQCYRRYIERSLNPVYVLGNMTDWLPDELRERIRKEEERGVSGAAALFLDAVLQLEARGWFRGMLDAMLAAGYTGLAEAIENWDFSKLEKLELHRQLLKRIEATMLEVDPVALIPYISTCLIDRECEEIQQISENRSKAAGITKLIECLCRSDKEHWPKSLQLALDTTGYYRASELWDIREDNAKDVDSEMTDASEDCLEASMTYSEEAEPDDNLSENLGSAAEGIGKPPPVYETKKARSYQIELAQPAINGKNALICAPTGSGKTFVSILICEHHFQNMPAGRKAKVVFLATKVPVYEQQKNVFKHHFERQGYSVQGISGENFSNVSVEKVIEDSDIIVVTPQILVNSFEDGTLTSLSIFTLMIFDECHNTTGNHPYNVLMTRYLEQKFNSASQLPQILGLTASVGVGNAKNIEETIEHICSLCSYLDIQAISTVRENIQELQRFMNKPEIDVRLVKRRIHNPFAAIISNLMSETEALMRTIYSVDTLSQNSKKDFGTQNYEHWIVVTQRKCRLLQLEDKEEESRICRALFICTEHLRKYNDALIISEDARIIDALSYLTEFFTNVKNGPYTELEQHLTAKFQEKEPELIALSKDETNENPKLEELVCILDDAYRYNPQTRTLLFAKTRALVSALKKCMEENPILNYIKPGVLMGRGRRDQTTGMTLPSQKGVLDAFKTSKDNRLLIATSVADEGIDIVQCNLVVLYEYSGNVTKMIQVRGRGRAAGSKCILVTSKTEVVENEKCNRYKEEMMNKAVEKIQKWDEETFAKKIHNLQMKERVLRDSRRKEIKPKVVEGQKNLLCGKCKAYACSTDDIRIIKDSHHIVLGEAFKERYTTKPHKKPMQFDGFEKKSKMYCRNNNCQHDWGITVKYLTFDNLPVIKIKSFVMESTATGTQMDFQKWKSINSSLKNFDVEEMSNLYPPF
In the case of B1, the binding result is reported as “no binding”.
